Measured values: patent US20120041012A1, “SUBSTITUTED SPIROCYCLIC AMINES USEFUL AS ANTIDIABETIC COMPOUNDS” (priority 2009, published 2012)

The chains behind the UniProt entries cited, without tags or fusion partners.
UniProt P35346, whole entry: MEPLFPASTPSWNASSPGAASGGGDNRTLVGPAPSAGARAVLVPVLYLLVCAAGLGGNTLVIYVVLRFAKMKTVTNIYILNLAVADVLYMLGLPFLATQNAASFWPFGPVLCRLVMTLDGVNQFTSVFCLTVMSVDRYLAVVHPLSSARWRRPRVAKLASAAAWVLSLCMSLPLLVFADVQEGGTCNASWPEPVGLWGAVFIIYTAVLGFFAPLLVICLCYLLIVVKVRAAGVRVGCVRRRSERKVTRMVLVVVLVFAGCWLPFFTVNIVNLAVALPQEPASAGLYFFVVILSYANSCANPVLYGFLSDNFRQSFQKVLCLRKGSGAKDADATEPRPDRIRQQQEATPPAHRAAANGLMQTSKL

Legend:
SSTR5 [1] = target: T1, SSTR5 (Homo sapiens, UniProt P35346); assay: SSTR5 receptor-ligand binding assay, CHO-K1 cell membranes, 125I-SRIF radioligand; details: read-out: SSTR5 Ki, Table 2
SSTR5 [2] = target: T1, SSTR5; assay: Functional assay of SSTR5 mediated cyclic AMP production in SSTR5 expressing CHO cells; details: read-out: SSTR5 (cAMP) IC50, Table 2, FSK plus SS-28

Ki (SSTR5 [1]) | IC50 (SSTR5 [2]) | SMILES | Ki (SSTR5 [1]; tested form: TFA) | IC50 (SSTR5 [2]; tested form: TFA)
 |  | O=C(O)c1ccc(N2CC3(CCN(Cc4cc(OC5CC5)c(Br)c(OC5CC5)c4)CC3)CC2=O)cc1 | 9.2 nM | 5.6 nM
0.735 nM | 0.95 nM | CCOc1cc(CN2CCC3(CC2)CC(=O)N(c2ccc(C(=O)O)cc2)C3)cc(OCC)c1-c1ccc(F)cc1F |  | 

Like-named read-outs stand apart in the source and are kept apart here. Structures were worked out from names or drawings and are uncertain.
